Taken from: PubChem BioAssay AID1159578 (Peter MacCallum Cancer Centre, 2015)
The whole screen tested about 18,000 reagents; below is a part drawn at random. About 1,030 of all reagents (5.7%) were called active. 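Inactive calls also include pools with fewer than 3300 nuclei, whose migration was not assessed.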 Raw values vary from plate to plate and are shown uncorrected. Unmarked entries are inactive.

Screen: 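Genome-wide hunt for genes controlling movement of lymphatic endothelial cells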 (primary screen)
System: human lymphatic endothelial cells
Reagents: siRNA pool against human genes, 40 nM
Duration: 48 h after transfection
Detection: 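Cells stained with dye and imaged after a scratch; covered wound area and nuclei counted, duplicates averaged, migration set against mock wells and turned into a robust z-score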
Direction: migration robust z-score: higher = faster migration into the scratch; migration relative to mock: higher = more scratch area covered than mock; nuclei per well: higher = more cells in the well
Active means: 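Pools averaging fewer than 3300 nuclei are never called; remaining pools count as changed when migration robust z lies outside -2 to 2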
Calls: active = migration changed; inactive = no migration change, or too few cells

target	migration robust z-score	migration class with cell-count check	migration relative to mock	nuclei per well, duplicate mean
IMP4	-0.41	migration z between -2 and 2; enough cells	0.78	5527
FOXH1	0.24	migration z between -2 and 2; enough cells	0.85	5928
B3GALT1	0.34	migration z between -2 and 2; enough cells	0.87	5672
HIBCH	0.39	migration z between -2 and 2; enough cells	0.88	6018
GHSR	-1.48	migration z between -2 and 2; enough cells	0.52	4267
TTC36	0.09	migration z between -2 and 2; enough cells	0.92	5273
DNAI1	-0.83	migration z between -2 and 2; enough cells	0.64	6254
XPA	-0.1	migration z between -2 and 2; enough cells	0.78	5833
REPS2	0.66	migration z between -2 and 2; enough cells	1.06	6142
GPC1	0.56	migration z between -2 and 2; enough cells	1.03	5683
SFXN4	-0.46	migration z between -2 and 2; enough cells	0.72	6063
COL11A2	-0.3	migration z between -2 and 2; enough cells	0.81	4070
SDCBP	0.62	migration z between -2 and 2; enough cells	1.04	6588
ZRANB1	-0.6	migration z between -2 and 2; enough cells	0.69	5444
PRSS38	0.08	migration z between -2 and 2; enough cells	0.82	5053
TOR1AIP1	-1.05	migration z between -2 and 2; enough cells	0.61	4348
HYKK	0.62	migration z between -2 and 2; enough cells	1.04	4905
OFCC1	-2.12 (active)	migration z below -2; enough cells	0.34	4433
AFAP1L2	-0.86	migration z between -2 and 2; enough cells	0.66	7159
SAP130	-0.2	migration z between -2 and 2; enough cells	0.83	5460
DNAH3	0.1	migration z between -2 and 2; enough cells	0.82	5876
SLC38A7	-1.03	migration z between -2 and 2; enough cells	0.6	5232
PLXNA3	0	migration z between -2 and 2; enough cells	0.8	5943
QNG1	1.74	migration z between -2 and 2; enough cells	1.34	4646
SNRK	-1.06	migration z between -2 and 2; enough cells	0.6	5992
MYBPHL	-1.9	migration z between -2 and 2; enough cells	0.4	5486
GSN	-0.55	migration z between -2 and 2; enough cells	0.74	3938
NOD2	-0.28	migration z between -2 and 2; enough cells	0.75	4348
COLGALT2	-0.23	migration z between -2 and 2; enough cells	0.83	5347
TAS2R7	-1.57	migration z between -2 and 2; enough cells	0.48	5615
KRT17	-1.27	under 3300 nuclei; migration not judged	0.55	3287
RFWD3	-1.97	migration z between -2 and 2; enough cells	0.42	4794
CCNP	0.9	migration z between -2 and 2; enough cells	1.12	6684
MUTYH	-0.84	migration z between -2 and 2; enough cells	0.64	6838
HNRNPUL1	-1.5	migration z between -2 and 2; enough cells	0.5	5322
PRF1	-1.04	migration z between -2 and 2; enough cells	0.61	5304
FHL5	0.88	migration z between -2 and 2; enough cells	0.98	6197
DIS3	0.54	migration z between -2 and 2; enough cells	0.91	4981
PAX8	-0.84	migration z between -2 and 2; enough cells	0.66	7196

Called active (from the list above):
target	migration robust z-score	migration class with cell-count check	migration relative to mock	nuclei per well, duplicate mean
OFCC1	-2.12 (active)	migration z below -2; enough cells	0.34	4433
